# Screening data, single-dose tests

By UniProt entry, the sequences of proteins in these tests, tags left out. Residues count along the entry.
UniProt I6X8D2, whole entry: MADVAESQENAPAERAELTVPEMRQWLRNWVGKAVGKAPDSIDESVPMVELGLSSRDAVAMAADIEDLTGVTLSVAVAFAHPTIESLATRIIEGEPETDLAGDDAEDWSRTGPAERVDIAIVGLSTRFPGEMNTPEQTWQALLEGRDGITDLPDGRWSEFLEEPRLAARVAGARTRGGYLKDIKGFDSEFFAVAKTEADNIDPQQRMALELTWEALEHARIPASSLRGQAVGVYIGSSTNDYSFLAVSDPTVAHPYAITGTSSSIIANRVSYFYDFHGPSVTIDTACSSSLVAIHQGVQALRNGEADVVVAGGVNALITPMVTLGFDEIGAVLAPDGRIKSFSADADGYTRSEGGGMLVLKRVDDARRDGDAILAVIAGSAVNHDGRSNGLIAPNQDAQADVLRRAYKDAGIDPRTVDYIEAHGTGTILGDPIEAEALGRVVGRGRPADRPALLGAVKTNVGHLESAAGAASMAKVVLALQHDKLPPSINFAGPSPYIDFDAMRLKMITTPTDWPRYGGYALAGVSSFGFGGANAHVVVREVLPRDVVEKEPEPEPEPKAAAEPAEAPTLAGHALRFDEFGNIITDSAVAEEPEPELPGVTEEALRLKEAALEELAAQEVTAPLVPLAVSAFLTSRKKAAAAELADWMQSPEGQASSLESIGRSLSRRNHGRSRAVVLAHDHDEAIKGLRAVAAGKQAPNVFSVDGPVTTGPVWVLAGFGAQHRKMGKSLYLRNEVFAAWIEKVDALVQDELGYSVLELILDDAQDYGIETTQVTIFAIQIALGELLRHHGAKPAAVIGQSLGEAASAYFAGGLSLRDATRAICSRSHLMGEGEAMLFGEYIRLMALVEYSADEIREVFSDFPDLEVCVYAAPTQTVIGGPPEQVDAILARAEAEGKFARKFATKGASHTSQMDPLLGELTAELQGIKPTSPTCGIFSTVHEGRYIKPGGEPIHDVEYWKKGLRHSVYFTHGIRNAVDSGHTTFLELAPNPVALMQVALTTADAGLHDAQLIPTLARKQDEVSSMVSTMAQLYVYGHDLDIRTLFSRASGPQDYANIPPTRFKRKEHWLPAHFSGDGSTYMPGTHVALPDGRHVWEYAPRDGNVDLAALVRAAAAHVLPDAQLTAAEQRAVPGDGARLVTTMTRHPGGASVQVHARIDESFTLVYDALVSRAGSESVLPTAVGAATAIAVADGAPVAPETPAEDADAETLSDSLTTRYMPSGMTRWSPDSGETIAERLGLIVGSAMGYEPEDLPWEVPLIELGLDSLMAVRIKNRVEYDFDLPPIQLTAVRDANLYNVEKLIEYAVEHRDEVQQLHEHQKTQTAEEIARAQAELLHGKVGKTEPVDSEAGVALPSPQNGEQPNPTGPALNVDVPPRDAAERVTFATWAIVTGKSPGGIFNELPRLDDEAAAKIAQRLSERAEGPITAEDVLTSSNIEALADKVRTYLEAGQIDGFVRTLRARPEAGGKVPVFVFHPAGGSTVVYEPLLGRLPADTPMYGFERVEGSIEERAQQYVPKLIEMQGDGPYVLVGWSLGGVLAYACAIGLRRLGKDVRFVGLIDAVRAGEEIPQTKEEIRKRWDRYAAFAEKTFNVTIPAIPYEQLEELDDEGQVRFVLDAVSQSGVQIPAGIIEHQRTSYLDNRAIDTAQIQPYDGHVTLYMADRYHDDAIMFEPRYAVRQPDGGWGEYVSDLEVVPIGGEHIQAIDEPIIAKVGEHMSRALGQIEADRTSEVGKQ
UniProt A4I591, 1-473: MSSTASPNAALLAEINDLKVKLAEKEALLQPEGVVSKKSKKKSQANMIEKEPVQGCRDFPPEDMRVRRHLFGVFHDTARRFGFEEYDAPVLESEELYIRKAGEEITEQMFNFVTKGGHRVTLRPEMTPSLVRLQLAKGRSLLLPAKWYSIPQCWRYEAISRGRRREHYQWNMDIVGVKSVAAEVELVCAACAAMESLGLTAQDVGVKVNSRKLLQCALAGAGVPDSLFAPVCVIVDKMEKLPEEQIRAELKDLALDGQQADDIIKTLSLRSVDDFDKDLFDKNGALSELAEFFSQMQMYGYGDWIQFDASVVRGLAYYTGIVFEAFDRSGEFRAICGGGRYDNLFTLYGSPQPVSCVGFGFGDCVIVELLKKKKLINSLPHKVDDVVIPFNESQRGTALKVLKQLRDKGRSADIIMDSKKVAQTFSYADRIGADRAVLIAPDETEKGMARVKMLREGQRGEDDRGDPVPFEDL

Leishmania in macrophages: 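Cell assay of Leishmania donovani living inside macrophages; the read-out is not stated. Concentration: 30 µM. Higher reads as stronger inhibition (inferred: compounds with an IC50 in retests scored well above the rest). About 69,000 compounds were tested under these conditions; 1.5% (about 1,000) showed 50% or more at least once.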
Pks13 thioesterase: 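Polyketide synthase Pks13, Mycobacterium tuberculosis (UniProt I6X8D2). Enzyme assay of the thioesterase domain of polyketide synthase 13; the read-out is not stated. Concentration: 30 µM. The record gives no direction; the compounds picked for IC50 retests had high values, so higher reads as stronger inhibition. Size under these conditions: about 67,000 compounds, about 300 of them at 50% or above in at least one test.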
LiHisRS: 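Histidine-tRNA ligase, Leishmania infantum (UniProt A4I591). Enzyme assay of histidyl-tRNA synthetase; the read-out is not stated. Concentration: 30 µM. Higher reads as stronger inhibition (inferred: compounds with an IC50 in retests scored well above the rest). The assay is labelled LdHisRS but filed under L. infantum. Size under these conditions: about 69,000 compounds, about 410 of them at 50% or above in at least one test.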

Each number is a percent effect as filed.
How 0% and 100% were set is not recorded. Most values in the screen are low, and negative values occur.
Compounds were drawn at random from those tested, without regard to their results.
Two or more numbers in one place are separate tests of the same structure; such repeats can differ widely.
A dash means the value is not listed here; it may have been measured.

SMILES	Leishmania in macrophages	Pks13 thioesterase	LiHisRS
CCCn1cc(C(=O)NCc2nnc(-c3ccc(C)nc3)o2)c(C)n1	14.16	6.626	1.408
O=C(N[C@@H]1CN(Cc2cccc3[nH]ccc23)C[C@H]1O)c1cscn1	5.796 and 1.099	1.976	13.04
COc1cc(C2Nc3cc(Cl)ccc3C3=NCCN32)cc(OC)c1OC (stereo not shown)	-0.1591	3.598	6
O=C(O)C(F)(F)F.[H][C@@]12CCN(Cc3scnc3C)C[C@]1(C(=O)NC)CCO2	-9.829	-	-
O=C(O)C(F)(F)F.[H][C@]12CCC(=O)N(CC3CCOCC3)[C@@]1([H])CCN2Cc1c(C)noc1C	16.1	-	-
Cc1cccc(N2CCN(CCNC(=O)C(C)n3cncn3)CC2)c1 (stereo not shown)	11.78	-13.1	37.88
c1ccc(N2CCOCC3(CCCN(c4nccs4)C3)C2)nc1 (stereo not shown)	19.19	65.95	24.47
Cl.c1cncc(CNc2cncc(C3CCCN3)n2)c1 (stereo not shown)	9.855	-	-
CC(NC(=O)CN1CCN(c2ccncc2Cl)CC1)c1ccco1 (stereo not shown)	35.02	-13.09	5.31
COCC[C@]1(O)CCN(Cc2ccccn2)C[C@H]1C	2.099	-13.91	23.01
Cc1cn2c(n1)CCC(NS(=O)(=O)c1ccc(C)s1)C2 (stereo not shown)	-21.49	-4.292	7.527
COc1cccc(CN2CCCC(c3nn(C)c4nccnc34)C2)c1 (stereo not shown)	-	6.69	1.042
COc1ccc(CNC(=O)CCCc2nnc3ccc(OC)nn23)cc1	8.212	-3.171	20.65
CC(C)CC(=O)Nc1ccc(Oc2ccsc2C(=O)O)cc1	2.601	-2.207	10.42
O=C(Cc1ccsc1)N1CCN(CC2CC2)c2ncccc2C1	-	-20.49	9
CC(CC(=O)N1CCN(c2cnccn2)CC1)c1ccc(F)cc1 (stereo not shown)	12.71	-0.7081	19.78
CCN1CCC2(CC1)CC(Nc1ncccn1)CO2 (stereo not shown)	22.48	-11.83	15.38
COC1COC2(CCN(Cc3ccccc3Cl)CC2)C1 (stereo not shown)	-	-42.14	1.942
CCCC(=O)N1CCN(c2cc(-n3cnc(C)c3C)nc(C)n2)CC1	-18.24	0.5329	4.839
CC(=O)NCCNC(=O)CN1CCN(Cc2nccn2C)C(C)C1 (stereo not shown)	6.493	-	6.154
COc1ccc(-n2cnnc2SCC(=O)N(C)C(C)C)cn1	12.98	-6.187	16.96
O=C(O)C(F)(F)F.O=C(c1cscn1)N1CCC2(CN(Cc3ccoc3)C2)C1	35.18	-	-
c1ccc(-c2nc(CNCCn3cccn3)cs2)nc1	10.13	-22.17	7.273
Cc1nc[nH]c1CN1CCN(C(=O)c2cccs2)[C@H]2CS(=O)(=O)C[C@H]21	-	-7.555	13.33
CN1CCCn2c(nc(CNS(=O)(=O)C3CC3)cc2=O)C1	-	-31.24	12
Cc1ccc(-c2nc(CN3CCC(N4CCNC4=O)CC3)co2)cc1	-1.288	-7.631	9.821
Cc1ccc(CN(CCN(C)C)Cc2ccnn2C2CCCCO2)o1.O=C(O)CC(O)(CC(=O)O)C(=O)O (stereo not shown)	31.72	-	-
Fc1cccc(F)c1Cn1c(C2CCCNC2)cc2cccnc21 (stereo not shown)	-	-2.666	11.27
CC(C)C(NC(=O)c1ccccc1F)C(=O)Nc1cnn(C)c1 (stereo not shown)	14.78	1.759	15.79
Cc1cnn(CC2CCCCN2C(=O)Cn2nc(C)c(Cl)c2C)c1 (stereo not shown)	-5.154	-38.25	12.94
Cc1nc(C2CCCN(C(=O)c3ccc(Cn4cccn4)o3)C2)no1 (stereo not shown)	-13.38	2.991	0
Cc1cccc(COc2ccccc2C(=O)N2CCC(C(N)=O)CC2)c1	16.49	-15.73	17.02
C[C@H](NC(=O)C1CCCC1)c1nc2cc(-c3ccc(F)cc3)ncn2n1	8.081 and 22	13.54	13.68
CSCCc1nc(-c2ccc3c(c2)OCO3)n(C)n1	20.48	-25.06	3.947
CC(=O)N(C)Cc1ccccc1NCc1c(C)noc1C	26.05	-15.38	24.24
CCCOc1cccc(C(=O)N2CCCC(n3cncn3)C2)c1 (stereo not shown)	-8.192	-6.286	10.53
Cn1cc(CNC2CCc3c(ccc(=O)n3Cc3cccnc3)C2)cn1.O=C(O)C(F)(F)F.O=C(O)C(F)(F)F (stereo not shown)	13.11	-	-
CCC(C(=O)Nc1ccc2nc(C)oc2c1)N1CCCC1=O (stereo not shown)	0.4172	-41.03	10.53
O=C(NCC(F)F)c1cc(-c2ccccc2)nc2ncnn12	-9.168	-7.459	-15.93
O=C(c1ccco1)N1CCC2(CC1)CCN(c1ncccn1)CC2	-6.083	-2.711	0
CCCNC(=O)CCNC(=O)N1CCc2c(F)ccc(F)c2C1	-19.33	3.072	19.18
CCc1cnc(N2CCN(Cc3ccncc3)CC2)s1	23.8	-30.58	12.68
CC(C)[C@H](NC(=O)N1CCN(c2ccc(Cl)cc2)CC1)C(=O)NC1CC1	28.33	-10.52	20.51
Cc1cc(C2CCCN(S(=O)(=O)c3cn(C)cn3)C2)ccn1 (stereo not shown)	14.91	7.657	12.77
CNS(=O)(=O)c1cccc(C(C)NCc2ccccc2)c1 (stereo not shown)	9.286	-7.363	-1.923
CC(C)N(Cc1cccc(Cl)c1)Cc1nc2c(cnn2C)c(=O)[nH]1	13.02	-27.71	-2.655
CC(C)NC(=O)N(Cc1cc(O)nc2ccccc12)C(C)C	24.76	12.87	9.89
O=C(O)C(F)(F)F.O=C(O)C(F)(F)F.[H][C@@]12OCCN(Cc3c(C)noc3C)[C@@]1([H])CC[C@H]2Oc1ncccc1F	0.711	-	-
O=C(O)C(F)(F)F.O=C(O)C(F)(F)F.O=C(O)C(F)(F)F.[H][C@@]12COC[C@]1(CN(C)C)CN(Cc1ccccn1)C2	13.19	-	-
O=C(c1cnccn1)N1CCCC(Cc2cncc3ccccc23)C1 (stereo not shown)	12.24	-33.92	10.34
CNC(=O)C1(N2CCC[C@H]2C(=O)NC2CCOCC2)CCOCC1.Cl	15.13	-	-
COCCN1CCc2c(cnc(-c3ccccc3)c2C(=O)O)C1.O=C(O)C(F)(F)F	18.24	-	-
CC(C)N(C)Cc1cnc2n1CCN(C(=O)Cc1ccsc1)C2	-	-1.635	20.21
COc1ccc(OC)c(-n2cnnc2C)c1	9.758	-19.57	12.12
CCc1nc(CN(C(C)=O)C2CCN(CCc3cccs3)C2)no1 (stereo not shown)	15.01	-17.34	18.75
COc1cccc(N2CCN(Cc3ncc[nH]3)CC2=O)c1	13.34	-2.646	20.19
c1cc(COC[C@@]23CCC[C@@H]2CN(C2CCOCC2)C3)ccn1	-	2.782	23.08
COc1c(CNC(C)c2sc(C)nc2C)c(C(C)C)nn1C (stereo not shown)	-9.58	-0.399	13.39
CCN1CCCC(NC(=O)CCn2c(C(F)F)cc3cccnc32)C1 (stereo not shown)	17.41	-2.711	-10.34
CC(C)c1n[nH]c(C2CN(C(=O)CCCn3cccn3)CCO2)n1 (stereo not shown)	6.492	-0.4744	4.808
CN(C(=O)c1cccc(OCC(F)F)n1)c1ccc2c(c1)CCO2	24.43	-4.249	7.018
Cc1oncc1C(=O)N1CC[C@H]2[C@H]1CCN2S(C)(=O)=O	-	-13.48	-15.32
Cl.NC(=O)COc1ccc(CNCc2ccc(F)cc2)cc1	-3.305	-	-

For reference, 6 entries once more:

| SMILES | Leishmania in macrophages | Pks13 thioesterase | LiHisRS |
|---|---|---|---|
| `CSCCc1nc(-c2ccc3c(c2)OCO3)n(C)n1` | 20.48 | -25.06 | 3.947 |
| `Fc1cccc(F)c1Cn1c(C2CCCNC2)cc2cccnc21` (stereo not shown) | - | -2.666 | 11.27 |
| `CN1CCCn2c(nc(CNS(=O)(=O)C3CC3)cc2=O)C1` | - | -31.24 | 12 |
| `Cc1ccc(-c2nc(CN3CCC(N4CCNC4=O)CC3)co2)cc1` | -1.288 | -7.631 | 9.821 |
| `COCC[C@]1(O)CCN(Cc2ccccn2)C[C@H]1C` | 2.099 | -13.91 | 23.01 |
| `Cc1cccc(N2CCN(CCNC(=O)C(C)n3cncn3)CC2)c1` (stereo not shown) | 11.78 | -13.1 | 37.88 |

Source: ChEMBL document CHEMBL3988442, “University of Dundee, Small-Polar-MMV Screening Library” (2021).